Source: PubChem BioAssay AID504749 (NCATS, 2011).

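A panel of P. falciparum strains inside erythrocytes is exposed to compounds for three days, then a DNA-binding dye reports the amount of parasite DNA.
Each compound was titrated across a series from about 0.000037 to 29 µM.
The number is the fitted AC50, the concentration giving a half-maximal change in signal; a lower value means higher potency, whether the curve shows a decrease or an increase.
Calls follow the curve class and fit quality: every row here is inconclusive, covering signal-raising curves and weak, poorly fitted, partial or highest-dose-only inhibition curves.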

Values are in nM.
Every entry below has the call inconclusive.
Only part of the assay is shown, chiefly results filed as inconclusive.
A potency from a partial, single-point or poor curve is only a rough figure.

Compound	tested on / at	fitted potency (nM)	curve
N#Cc1nn(-c2c(Cl)cc(C(F)(F)F)cc2Cl)c(N)c1S(=O)C(F)(F)F (stereo not drawn)	CP266	6012	inhibitor, partial curve, poor fit
N#Cc1nn(-c2c(Cl)cc(C(F)(F)F)cc2Cl)c(N)c1S(=O)C(F)(F)F (stereo not drawn)	JCK	10000	inhibitor, single point
N#Cc1nn(-c2c(Cl)cc(C(F)(F)F)cc2Cl)c(N)c1S(=O)C(F)(F)F (stereo not drawn)	CP256	17782	inhibitor, single point
N#Cc1nn(-c2c(Cl)cc(C(F)(F)F)cc2Cl)c(N)c1S(=O)C(F)(F)F (stereo not drawn)	FAB9	17782	inhibitor, single point
N#Cc1nn(-c2c(Cl)cc(C(F)(F)F)cc2Cl)c(N)c1S(=O)C(F)(F)F (stereo not drawn)	CP203	19011	inhibitor, single point
N#Cc1nn(-c2c(Cl)cc(C(F)(F)F)cc2Cl)c(N)c1S(=O)C(F)(F)F (stereo not drawn)	CP325	19011	inhibitor, single point
N#Cc1nn(-c2c(Cl)cc(C(F)(F)F)cc2Cl)c(N)c1S(=O)C(F)(F)F (stereo not drawn)	CP238	12589	inhibitor, single point
N#Cc1nn(-c2c(Cl)cc(C(F)(F)F)cc2Cl)c(N)c1S(=O)C(F)(F)F (stereo not drawn)	CP315	19011	inhibitor, single point
N#Cc1nn(-c2c(Cl)cc(C(F)(F)F)cc2Cl)c(N)c1S(=O)C(F)(F)F (stereo not drawn)	CP185	12589	inhibitor, single point
N#Cc1nn(-c2c(Cl)cc(C(F)(F)F)cc2Cl)c(N)c1S(=O)C(F)(F)F (stereo not drawn)	CP252	11220	inhibitor, single point
COc1cc(/C=C/C(=O)N2CCN(CC(=O)N3CCCC3)CC2)cc(OC)c1OC	N140	8912	inhibitor, partial curve, poor fit
COc1cc(/C=C/C(=O)N2CCN(CC(=O)N3CCCC3)CC2)cc(OC)c1OC	PC26	8492	inhibitor, single point
COc1cc(/C=C/C(=O)N2CCN(CC(=O)N3CCCC3)CC2)cc(OC)c1OC	AS120	14125	inhibitor, single point
COc1cc(/C=C/C(=O)N2CCN(CC(=O)N3CCCC3)CC2)cc(OC)c1OC	DIV14	8492	inhibitor, partial curve
COc1cc(/C=C/C(=O)N2CCN(CC(=O)N3CCCC3)CC2)cc(OC)c1OC	DIV30	19011	inhibitor, single point
COc1cc(/C=C/C(=O)N2CCN(CC(=O)N3CCCC3)CC2)cc(OC)c1OC	PAD	10000	inhibitor, single point
COc1cc(/C=C/C(=O)N2CCN(CC(=O)N3CCCC3)CC2)cc(OC)c1OC	P93_24	10000	inhibitor, partial curve
COc1cc(/C=C/C(=O)N2CCN(CC(=O)N3CCCC3)CC2)cc(OC)c1OC	DIV17	8492	inhibitor, partial curve
COc1cc(/C=C/C(=O)N2CCN(CC(=O)N3CCCC3)CC2)cc(OC)c1OC	ECU	15848	inhibitor, single point
COC(=O)[C@H]1[C@H]2C[C@@H]3c4[nH]c5cc(OC)ccc5c4CCN3C[C@H]2C[C@@H](OC(=O)c2cc(OC)c(OC)c(OC)c2)[C@@H]1OC	CP203	6746	inhibitor, partial curve, poor fit
COC(=O)[C@H]1[C@H]2C[C@@H]3c4[nH]c5cc(OC)ccc5c4CCN3C[C@H]2C[C@@H](OC(=O)c2cc(OC)c(OC)c(OC)c2)[C@@H]1OC	JCK	10000	inhibitor, single point
COC(=O)[C@H]1[C@H]2C[C@@H]3c4[nH]c5cc(OC)ccc5c4CCN3C[C@H]2C[C@@H](OC(=O)c2cc(OC)c(OC)c(OC)c2)[C@@H]1OC	DFO2036	12589	inhibitor, single point
COC(=O)[C@H]1[C@H]2C[C@@H]3c4[nH]c5cc(OC)ccc5c4CCN3C[C@H]2C[C@@H](OC(=O)c2cc(OC)c(OC)c(OC)c2)[C@@H]1OC	CP262	9528	inhibitor, single point

Repeated from the top, 2 entries:

- N#Cc1nn(-c2c(Cl)cc(C(F)(F)F)cc2Cl)c(N)c1S(=O)C(F)(F)F (stereo not drawn) [CP266] : fitted potency 6012 nM (inhibitor, partial curve, poor fit)
- N#Cc1nn(-c2c(Cl)cc(C(F)(F)F)cc2Cl)c(N)c1S(=O)C(F)(F)F (stereo not drawn) [JCK] : fitted potency 10000 nM (inhibitor, single point)